At least one compound was matched to its structure with a doubt left.
Assay: Dissolution rate, USP Apparatus 2 (paddle), simulated gastric fluid without pepsin
Format: physicochemical
Conditions: granulation sample containing 100 mg active, 900 mL simulated gastric fluid without pepsin, 37° C., 100 rpm

## CCC(C)n1ncn(-c2ccc(N3CCN(c4ccc(OCC5COC(Cn6cncn6)(c6ccc(Cl)cc6Cl)O5)cc4)CC3)cc2)c1=O (centres unmarked) [crystalline itraconazole, itraconazole]
30 minutes
  itraconazole dissolved after 30 minutes: 1%
60 minutes
  itraconazole dissolved after 60 minutes: 2%

Source: patent US6379707B2, “Method of making granular pharmaceutical vehicle” (FMC Corporation, priority 1999, dated 2002)
